Test system: single copy HPRT gene
Assay: Mutation rate by knockout of single copy HPRT gene (6-thioguanine selection) in Jurkat cells
Type: cell-based, human
Text: The ability to identify all genetic mutations that can create a phenotype requires that large numbers of mutations be created in as few cells as possible, and the high efficiency of ENU chemical mutagenesis is suited to this task. We set out to determine the ENU treatment needed to create 50-100 cell libraries in which all genes are mutated at least once (defined as a 1× knockout library) in Jurkat cells. To characterize the mutagenesis we measured both cell survival and the mutation rate in characterizing the optimal ENU treatment (Table I). Survival was determined by limiting dilution, and the mutation rate was estimated in the population of surviving clones based on the frequency of knocking out the single copy HPRT gene (assayed by the survival of such HPRT^− cells upon culture in the presence of 6-thioguanine). As shown in the table below, at an ENU dose of 0.2 mg/ml the mutation rate is 0.02 HPRT^− genes/cell and the 1× library size is therefore ˜50 cells. Creation of libraries of these densely mutagenized cells provides a genetically sensitized background in which small increments of further mutagenesis can create phenotypes by knocking out the sole remaining wild type alleles of ENU-mutated genes.
• Jurkat cells were treated with 10 uM O-6-BG (Sigma) at 5×10^5 cells/ml for 16 hours at 37° C. in a humidified incubator with 5% CO2. The pretreated cells were then incubated with desired concentration of ENU (Sigma) in the presence of O-6-BG for 2 hours at 37° C. with constant shaking. At the end of incubation cells were washed with 10-volume 1×PBS three times and resuspended in complete media with 10 uM O-6-BG. 24 hours later O-6-BG was washed off, cells were resuspended in complete media and seeded onto 96-well plate at 20 cells per well or 400-2000 cells per well. Cells were then cultured for 10 days. Viability is determined by the lower density seeding based on number of wells containing growing colonies. To determine mutation frequency, cells seeded at the higher density were used to select for Hprt-loss of function mutants in the presence of 40 uM 6-TG (Sigma). Number of wells containing growing colonies in the presence of 6-TG was scored 7-10 days later. Mutation frequency is calculated as # of 6-TG resistant colony divided by # of viable cells seeded.

Structure (SMILES)	1× library size (0.7 mg/ml EMS)	1× library size (ENU 0.1 mg/ml, number of ENU treated clones needed to contain mutations) [clones]	1× library size (ENU 0.125 mg/ml, number of ENU treated clones needed to contain mutations) [clones]	1× library size (ENU 0.15 mg/ml, number of ENU treated clones needed to contain mutations) [clones]	1× library size (ENU 0.175 mg/ml, number of ENU treated clones needed to contain mutations) [clones]	1× library size (ENU 0.2 mg/ml, number of ENU treated clones needed to contain mutations) [clones]	1× library size (ENU 0.25 mg/ml, number of ENU treated clones needed to contain mutations) [clones]	1× library size (ENU dose of 0.2 mg/ml) [cells]
CCOS(C)(=O)=O [EMS, ethylmethanesulphonate]	about 100 cells							
CCN(N=O)C(N)=O [ENU, N-ethyl-N-nitrosourea]		417	204	164	122	50	31	~50
